No constants are given. Whether binding was seen depends on the method and setting. Some entries that bind do so weakly or less than the wild type.

Amino acid sequences for entries named in this document (tags omitted). Residues count along the entry.
UniProt P02769, residues 25-607: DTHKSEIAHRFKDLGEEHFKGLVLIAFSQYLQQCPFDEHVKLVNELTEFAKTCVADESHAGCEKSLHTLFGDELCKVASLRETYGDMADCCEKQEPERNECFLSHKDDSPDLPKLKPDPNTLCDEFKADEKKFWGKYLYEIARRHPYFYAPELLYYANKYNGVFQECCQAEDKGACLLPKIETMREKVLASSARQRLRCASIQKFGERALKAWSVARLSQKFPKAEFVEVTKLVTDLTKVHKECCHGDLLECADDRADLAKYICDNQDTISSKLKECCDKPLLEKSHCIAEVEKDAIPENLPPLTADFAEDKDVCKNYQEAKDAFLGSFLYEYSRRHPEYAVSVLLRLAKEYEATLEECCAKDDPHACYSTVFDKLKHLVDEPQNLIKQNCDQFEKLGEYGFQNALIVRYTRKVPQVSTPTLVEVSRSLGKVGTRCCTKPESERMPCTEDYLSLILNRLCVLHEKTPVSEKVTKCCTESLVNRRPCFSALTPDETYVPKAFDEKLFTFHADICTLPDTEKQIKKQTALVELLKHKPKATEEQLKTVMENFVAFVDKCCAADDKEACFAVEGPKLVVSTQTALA

Experiment [1] addresses Heat-denatured BSA (bovine serum albumin autoclaved for 15 minutes) (bovine) (UniProt P02769). Kind of experiment: turbidity (OD550), heat-denatured BSA mixed with rising concentration of the ITIH4 fragment.
The target is the same in experiment [2]. Kind of experiment: turbidity (OD550), heat-denatured BSA mixed with rising concentration of the kininogen fragment.

B1: fragment of ITIH4 (positions 611 to 642) (peptide)
peptide: GESRNRNVHSGSTFFKYYLQGAKIPKPEASFS
notes: also called ITIH4 (611-642); ITIH4 fragment
In the case of B1, the binding entry in experiment [1] is listed as “binds”.

B2: fragment of kininogen (positions 439 to 457) (peptide)
peptide: HNLGHGHKHERDQGHGHQR
notes: also called Kininogen (439-457); kininogen fragment
Consider B2, for which the binding entry in experiment [2] was “binds”.

These data come from patent US20170089928A1 (SYSMEX, published 2017).
